Data on 9 sequences can be found in paper PMC10082759, “Shieldin complex assembly kinetics and DNA binding by SHLD3” (Communications Biology, 2022).

In series [1] the target is T1, SHLD3 CTD (human) (UniProt Q6ZNX1).
T1 sequence (looked up): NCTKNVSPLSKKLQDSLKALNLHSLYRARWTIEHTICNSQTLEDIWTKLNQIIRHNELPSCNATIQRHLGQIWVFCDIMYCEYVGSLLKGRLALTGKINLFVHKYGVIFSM
The series is described as follows: competition with a labelled probe. The note with it: 1 uM competitor vs 10 nM FAM-ssDNA, 1 uM protein; 20 mM Na-HEPES pH 7.5, 5% glycerol, 100 mM NaCl, 0.5 mM TCEP; 10 nM DNA, 30 min, room temperature; recombinant protein; residues 140-250; protein details: MBP or GST tag, cleaved (PreScission).

In series [2] the test system is SHLD3 + SHLD2 1-95 + REV7 R124A. Nature of the series: fluorescence anisotropy. The note with it: Kd within 144-576 nM range for the overhang/hairpin set, 20 mM Na-HEPES pH 7.5, 5% glycerol, 100 mM NaCl, 0.5 mM TCEP, 10 nM DNA, 30 min, room temperature, recombinant protein. In general terms: Fluorescence polarisation rises when a labelled molecule tumbles more slowly, as on binding a larger partner.

Series [3] has as its target T2, SHLD3 CTD H242A K243A (human) (UniProt Q6ZNX1).
T2 sequence (looked up): T1 sequence (looked up) with H103A, K104A
The series is described as follows: fluorescence anisotropy. The note with it: strong reduction of signal, 20 mM Na-HEPES pH 7.5, 5% glycerol, 100 mM NaCl, 0.5 mM TCEP, 10 nM DNA, 30 min, room temperature, recombinant protein, residues 140-250, protein details: MBP or GST tag, cleaved (PreScission).

Numbering of substitutions follows the chain as printed. For part of these data: Weaker means in comparison with the reference protein, sequence or condition of that experiment. For part of these data: Where a protein sequence is shown, tags need not be part of it. For part of these data: For at least one entry, the source does not settle the construct or the ends of the probe. For part of these data: At least one verdict rests on a figure or table, not on a statement of the authors.

Take “AGTGCCAGTGCC (double strand) [non-telomeric dsDNA competitor]”: the binding result in series [1] is on record as “binds”. For AGTGCCAGTGCC / ACTGGCACT [9ds3ss], the binding result in series [2] (label: 5(6)-FAM on strand 1) is “binds”. On the same count and under the same terms, the same measure for AGTGCCAGTGCC / CACTGGCACT [10ds2ss]: “binds”; for AGTGCCAGTGCC / GCACTGGCACT [11ds1ss]: “binds”. For the sequence “GTAGGAAGGGGAGCGGGGGAGGATAATAGG / CCTATTATCCTCCCC [15-bp 5'-tailed DNA]”, the binding result in series [2] (label: 5(6)-FAM) is “binds”. Consider “GTAGGAAGGGGAGCGGGGGAGGATAATAGG / CGCTCCCCTTCCTAC [15-bp 3'-tailed DNA]”, for which the binding result in series [2] (label: 5(6)-FAM) is listed as “binds”. Consider “TCCCCTTCCTACTTTTTTGTAGGAAGGGGAGCGGGGGAGGATAATAGG [hairpin DNA with ssDNA tail]”, for which, in series [2] (label: 5(6)-FAM, folded or branched DNA), the binding result was “binds”. For TTAGGGTTAGGG (double strand) [dsTelo], the binding result in series [3] (label: 5(6)-FAM on strand 1) is “binds more weakly”. Take TTAGGGTTAGGG [telomeric ssDNA]: the binding result in series [3] (label: 5(6)-FAM, single-stranded DNA) was “binds more weakly”.
